Measured data: PubChem BioAssay AID686938 (Drosophila RNAi Screening Center, 2013)
Test: 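Fly genes required for calcium entry once internal stores are emptied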 (primary screen). Cells: Drosophila S2R+ cells. Reagent: long dsRNA against Drosophila genes, about 0.25 µg dsRNA per well, roughly 10,000 cells. Duration: 5 days of knock-down before the calcium assay. Conditions: thapsigargin (SERCA pump blocker) to empty calcium stores; entry signal taken 4 min after adding it. Read-out: 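Per-well fluo-4 fluorescence in two replicates, unnormalised, measured in resting cells and 4 min after store depletion by the SERCA blocker thapsigargin; ratio of the two present in few wells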. Direction: calcium entry signal: higher = stronger calcium signal after store depletion; resting calcium signal: higher = higher resting calcium signal. Units: calcium entry signal in fluorescence units; resting calcium signal in fluorescence units. Call rule: 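Called when the plate z-score of the entry-to-rest ratio, mean of duplicates, falls below −3; wells with low overall dye signal (Fmax z below −2) or more than five off-targets excluded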. Calls: active = strongly reduced calcium entry; inactive = no strong reduction.
The deposit covers about 23,000 reagents; shown is a random part of those that have a named target and a result. Of all reagents, 75 (0.33%) were called active. 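Raw plate signals without normalisation; calls rest on plate z-scores that were not deposited; ratio present for only 364 wells.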 Unmarked entries are inactive. A plus sign joins genes that one reagent is predicted to hit. Not given: the dose of the treatment.

For CG12289 [DRSC09874], what was measured?
calcium entry signal, replicate 1: 3.07e7; calcium entry signal, replicate 2: 3.58e7; resting calcium signal, replicate 1: 1.67e7; resting calcium signal, replicate 2: 1.62e7

For CG43059 [DRSC08916], how do the results read?
calcium entry signal, replicate 1: 2.71e7; calcium entry signal, replicate 2: 3.70e7; resting calcium signal, replicate 1: 1.51e7; resting calcium signal, replicate 2: 1.67e7

Which result is listed for CG6441 [DRSC02957]?
calcium entry signal, replicate 1: 3.64e7; calcium entry signal, replicate 2: 3.75e7; resting calcium signal, replicate 1: 1.73e7; resting calcium signal, replicate 2: 1.77e7

For CG15186 [DRSC12566], how do the results read?
calcium entry signal, replicate 1: 5.43e7; calcium entry signal, replicate 2: 3.87e7; resting calcium signal, replicate 1: 2.48e7; resting calcium signal, replicate 2: 1.85e7

Looked up above.
CG12289 [DRSC09874], resting calcium signal, replicate 2 → 1.62e7
Under “resting calcium signal, replicate 1”, CG43059 [DRSC08916] shows 1.51e7

The results go on.
What did the screen give for Ugt37C2 [DRSC02247]?
calcium entry signal, replicate 1: 4.92e7; calcium entry signal, replicate 2: 2.62e7; resting calcium signal, replicate 1: 2.91e7; resting calcium signal, replicate 2: 1.29e7

How did the screen score ham [DRSC01657]?
calcium entry signal, replicate 1: 2.57e7; calcium entry signal, replicate 2: 4.49e7; resting calcium signal, replicate 1: 1.44e7; resting calcium signal, replicate 2: 1.91e7

What did the screen give for ham [DRSC02070]?
calcium entry signal, replicate 1: 4.35e7; calcium entry signal, replicate 2: 4.53e7; resting calcium signal, replicate 1: 2.08e7; resting calcium signal, replicate 2: 1.81e7

For ham [DRSC02512], what does the deposit list?
calcium entry signal, replicate 1: 4.14e7; calcium entry signal, replicate 2: 2.22e7; resting calcium signal, replicate 1: 2.01e7; resting calcium signal, replicate 2: 1.18e7

With ham [DRSC02513], what was measured?
calcium entry signal, replicate 1: 3.45e7; calcium entry signal, replicate 2: 3.94e7; resting calcium signal, replicate 1: 1.84e7; resting calcium signal, replicate 2: 1.83e7

What did the screen give for Liprin-gamma [DRSC04093]?
calcium entry signal, replicate 1: 5.59e7; calcium entry signal, replicate 2: 3.44e7; resting calcium signal, replicate 1: 2.75e7; resting calcium signal, replicate 2: 1.79e7

For CG33502 + CG32857 + CG32500 [DRSC20817], how do the results read?
calcium entry signal, replicate 1: 4.36e7; calcium entry signal, replicate 2: 3.59e7; resting calcium signal, replicate 1: 1.89e7; resting calcium signal, replicate 2: 1.53e7

What is on record for CG33502 + CG32857 + CG32500 [DRSC21038]?
calcium entry signal, replicate 1: 4.53e7; calcium entry signal, replicate 2: 4.32e7; resting calcium signal, replicate 1: 2.09e7; resting calcium signal, replicate 2: 1.65e7
